By UniProt entry, the sequences of proteins in these tests, tags left out. Where a name states a change or a piece, a line headed by the entry shows the natural chain unless it says otherwise.
UniProt Q9H479: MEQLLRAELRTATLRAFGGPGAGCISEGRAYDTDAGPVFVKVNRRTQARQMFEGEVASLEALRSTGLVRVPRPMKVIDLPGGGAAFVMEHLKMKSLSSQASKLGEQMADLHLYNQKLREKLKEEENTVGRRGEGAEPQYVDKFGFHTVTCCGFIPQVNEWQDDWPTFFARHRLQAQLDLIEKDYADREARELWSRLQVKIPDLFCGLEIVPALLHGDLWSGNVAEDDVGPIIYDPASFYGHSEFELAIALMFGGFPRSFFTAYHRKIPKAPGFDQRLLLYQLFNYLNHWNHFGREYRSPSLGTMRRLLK
UniProt Q9Y285: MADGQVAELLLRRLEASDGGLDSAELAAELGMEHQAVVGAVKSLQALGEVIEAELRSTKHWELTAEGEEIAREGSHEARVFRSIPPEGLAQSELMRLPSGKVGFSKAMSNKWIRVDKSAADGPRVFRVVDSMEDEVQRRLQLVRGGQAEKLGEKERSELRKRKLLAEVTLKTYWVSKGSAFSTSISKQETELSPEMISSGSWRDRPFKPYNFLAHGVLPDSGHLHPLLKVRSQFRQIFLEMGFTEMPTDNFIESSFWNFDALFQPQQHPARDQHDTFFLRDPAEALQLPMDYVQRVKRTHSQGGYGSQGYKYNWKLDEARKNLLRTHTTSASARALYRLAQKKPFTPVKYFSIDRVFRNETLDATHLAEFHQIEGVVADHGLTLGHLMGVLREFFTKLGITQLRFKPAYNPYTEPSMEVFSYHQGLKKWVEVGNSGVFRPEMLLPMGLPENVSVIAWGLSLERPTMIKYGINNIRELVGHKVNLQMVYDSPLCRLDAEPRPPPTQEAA
UniProt P10109: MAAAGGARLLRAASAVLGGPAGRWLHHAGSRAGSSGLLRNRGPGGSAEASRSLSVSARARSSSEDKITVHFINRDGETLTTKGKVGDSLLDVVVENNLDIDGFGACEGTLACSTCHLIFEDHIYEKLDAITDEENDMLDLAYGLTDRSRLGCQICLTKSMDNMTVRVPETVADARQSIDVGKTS
UniProt Q9NVK5: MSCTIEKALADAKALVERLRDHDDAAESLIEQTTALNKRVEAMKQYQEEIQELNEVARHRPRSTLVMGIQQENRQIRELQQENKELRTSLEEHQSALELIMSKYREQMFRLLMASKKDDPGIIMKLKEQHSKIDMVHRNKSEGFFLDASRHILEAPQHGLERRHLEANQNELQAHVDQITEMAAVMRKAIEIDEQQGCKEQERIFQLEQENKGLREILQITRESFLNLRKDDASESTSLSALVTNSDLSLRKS
UniProt Q9Y680: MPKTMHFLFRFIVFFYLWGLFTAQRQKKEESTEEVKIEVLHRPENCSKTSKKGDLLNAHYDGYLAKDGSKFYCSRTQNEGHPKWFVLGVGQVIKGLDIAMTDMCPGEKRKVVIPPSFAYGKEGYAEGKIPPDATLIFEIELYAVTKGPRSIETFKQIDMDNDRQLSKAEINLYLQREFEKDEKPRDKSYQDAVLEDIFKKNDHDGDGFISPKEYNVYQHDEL
UniProt Q6ZV73: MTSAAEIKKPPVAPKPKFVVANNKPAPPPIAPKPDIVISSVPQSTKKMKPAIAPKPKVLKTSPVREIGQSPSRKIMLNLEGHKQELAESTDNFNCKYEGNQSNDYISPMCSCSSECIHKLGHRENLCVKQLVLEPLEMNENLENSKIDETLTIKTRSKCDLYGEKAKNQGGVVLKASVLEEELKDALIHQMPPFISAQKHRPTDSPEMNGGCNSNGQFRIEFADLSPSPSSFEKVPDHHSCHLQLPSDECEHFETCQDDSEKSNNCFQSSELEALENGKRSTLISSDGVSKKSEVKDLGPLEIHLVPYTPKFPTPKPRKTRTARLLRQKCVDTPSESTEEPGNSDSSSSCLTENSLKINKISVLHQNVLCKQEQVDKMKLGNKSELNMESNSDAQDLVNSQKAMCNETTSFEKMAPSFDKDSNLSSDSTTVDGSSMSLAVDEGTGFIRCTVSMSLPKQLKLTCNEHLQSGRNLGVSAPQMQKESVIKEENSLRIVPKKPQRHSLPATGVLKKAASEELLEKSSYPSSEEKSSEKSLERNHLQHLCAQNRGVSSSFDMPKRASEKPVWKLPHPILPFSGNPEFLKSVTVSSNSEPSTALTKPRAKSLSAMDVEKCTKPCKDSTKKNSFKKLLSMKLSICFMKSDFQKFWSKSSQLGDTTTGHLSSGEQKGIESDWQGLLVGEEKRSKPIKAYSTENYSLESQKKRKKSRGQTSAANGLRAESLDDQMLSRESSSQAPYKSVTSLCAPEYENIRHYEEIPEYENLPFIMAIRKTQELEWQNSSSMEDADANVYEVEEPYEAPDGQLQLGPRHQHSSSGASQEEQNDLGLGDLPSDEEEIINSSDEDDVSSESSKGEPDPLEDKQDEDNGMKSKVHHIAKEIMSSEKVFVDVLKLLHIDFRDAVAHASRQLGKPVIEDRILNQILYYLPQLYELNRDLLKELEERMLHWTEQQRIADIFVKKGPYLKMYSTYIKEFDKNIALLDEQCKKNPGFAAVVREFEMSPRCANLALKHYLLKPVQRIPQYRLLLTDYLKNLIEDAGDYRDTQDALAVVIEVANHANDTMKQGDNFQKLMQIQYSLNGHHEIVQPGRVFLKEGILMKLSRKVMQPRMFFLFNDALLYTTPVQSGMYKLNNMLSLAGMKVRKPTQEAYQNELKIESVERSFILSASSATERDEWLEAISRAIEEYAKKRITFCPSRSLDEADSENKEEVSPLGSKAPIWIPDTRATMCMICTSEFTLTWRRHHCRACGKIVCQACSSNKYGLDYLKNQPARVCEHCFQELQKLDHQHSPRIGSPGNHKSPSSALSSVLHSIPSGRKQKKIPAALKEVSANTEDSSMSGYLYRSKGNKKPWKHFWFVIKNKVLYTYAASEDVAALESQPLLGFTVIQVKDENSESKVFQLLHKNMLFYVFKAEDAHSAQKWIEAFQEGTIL
UniProt P22830: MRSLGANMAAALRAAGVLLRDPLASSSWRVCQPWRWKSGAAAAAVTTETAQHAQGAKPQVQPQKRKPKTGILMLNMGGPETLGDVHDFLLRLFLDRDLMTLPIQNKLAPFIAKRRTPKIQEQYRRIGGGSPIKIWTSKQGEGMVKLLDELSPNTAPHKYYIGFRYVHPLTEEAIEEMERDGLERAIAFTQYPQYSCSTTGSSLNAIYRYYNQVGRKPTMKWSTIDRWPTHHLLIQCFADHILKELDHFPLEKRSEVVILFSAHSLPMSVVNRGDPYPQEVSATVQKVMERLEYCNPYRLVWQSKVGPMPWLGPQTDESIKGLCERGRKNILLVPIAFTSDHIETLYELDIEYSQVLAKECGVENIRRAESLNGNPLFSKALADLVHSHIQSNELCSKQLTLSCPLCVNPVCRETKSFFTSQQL
UniProt Q9NVI1: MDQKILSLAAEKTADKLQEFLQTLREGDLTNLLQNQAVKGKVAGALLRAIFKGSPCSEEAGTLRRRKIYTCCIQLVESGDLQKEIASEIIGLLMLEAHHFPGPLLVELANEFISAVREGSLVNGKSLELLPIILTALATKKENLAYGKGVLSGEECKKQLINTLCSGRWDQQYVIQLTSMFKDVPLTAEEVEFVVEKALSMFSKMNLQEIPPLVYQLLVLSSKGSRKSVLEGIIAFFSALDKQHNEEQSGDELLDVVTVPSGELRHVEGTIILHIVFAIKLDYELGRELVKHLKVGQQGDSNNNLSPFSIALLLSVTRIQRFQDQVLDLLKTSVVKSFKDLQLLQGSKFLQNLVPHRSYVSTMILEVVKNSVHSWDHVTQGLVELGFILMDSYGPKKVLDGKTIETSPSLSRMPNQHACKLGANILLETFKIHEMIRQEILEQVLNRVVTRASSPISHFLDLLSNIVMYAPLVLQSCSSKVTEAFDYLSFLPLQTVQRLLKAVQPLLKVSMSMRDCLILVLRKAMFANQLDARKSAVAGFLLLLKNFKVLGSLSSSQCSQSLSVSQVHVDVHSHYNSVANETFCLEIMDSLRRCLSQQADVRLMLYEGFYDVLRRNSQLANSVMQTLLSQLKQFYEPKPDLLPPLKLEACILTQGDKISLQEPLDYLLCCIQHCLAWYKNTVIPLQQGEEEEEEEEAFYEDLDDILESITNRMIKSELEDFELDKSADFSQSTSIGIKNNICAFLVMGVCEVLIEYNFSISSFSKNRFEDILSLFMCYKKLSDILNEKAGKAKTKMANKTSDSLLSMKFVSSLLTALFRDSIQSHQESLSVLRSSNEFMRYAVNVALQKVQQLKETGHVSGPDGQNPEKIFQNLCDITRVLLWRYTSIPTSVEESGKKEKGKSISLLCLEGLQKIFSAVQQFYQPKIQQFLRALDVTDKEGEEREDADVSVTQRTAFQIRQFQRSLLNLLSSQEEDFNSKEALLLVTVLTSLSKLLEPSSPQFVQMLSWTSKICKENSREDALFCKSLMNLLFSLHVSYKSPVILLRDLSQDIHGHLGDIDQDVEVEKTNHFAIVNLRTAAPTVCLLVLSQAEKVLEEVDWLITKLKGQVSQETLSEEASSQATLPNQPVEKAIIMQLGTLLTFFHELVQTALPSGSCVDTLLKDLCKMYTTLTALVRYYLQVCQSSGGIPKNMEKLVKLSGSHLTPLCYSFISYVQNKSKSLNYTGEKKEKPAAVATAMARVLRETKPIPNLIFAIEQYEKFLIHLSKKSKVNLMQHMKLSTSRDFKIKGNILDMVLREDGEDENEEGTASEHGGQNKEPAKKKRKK
UniProt Q9Y3I1: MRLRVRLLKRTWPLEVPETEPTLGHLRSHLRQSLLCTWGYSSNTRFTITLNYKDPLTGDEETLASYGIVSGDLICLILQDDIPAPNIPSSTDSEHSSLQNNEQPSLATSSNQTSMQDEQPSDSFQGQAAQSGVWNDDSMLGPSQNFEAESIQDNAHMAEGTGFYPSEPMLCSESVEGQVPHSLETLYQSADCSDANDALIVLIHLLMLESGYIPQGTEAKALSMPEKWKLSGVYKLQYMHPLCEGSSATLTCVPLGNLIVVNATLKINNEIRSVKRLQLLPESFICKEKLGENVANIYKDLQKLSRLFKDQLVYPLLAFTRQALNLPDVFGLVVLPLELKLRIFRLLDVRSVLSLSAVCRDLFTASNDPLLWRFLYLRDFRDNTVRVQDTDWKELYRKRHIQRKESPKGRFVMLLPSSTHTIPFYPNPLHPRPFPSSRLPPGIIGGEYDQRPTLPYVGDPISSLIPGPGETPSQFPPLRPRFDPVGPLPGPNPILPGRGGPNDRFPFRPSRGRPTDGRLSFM
UniProt Q13643: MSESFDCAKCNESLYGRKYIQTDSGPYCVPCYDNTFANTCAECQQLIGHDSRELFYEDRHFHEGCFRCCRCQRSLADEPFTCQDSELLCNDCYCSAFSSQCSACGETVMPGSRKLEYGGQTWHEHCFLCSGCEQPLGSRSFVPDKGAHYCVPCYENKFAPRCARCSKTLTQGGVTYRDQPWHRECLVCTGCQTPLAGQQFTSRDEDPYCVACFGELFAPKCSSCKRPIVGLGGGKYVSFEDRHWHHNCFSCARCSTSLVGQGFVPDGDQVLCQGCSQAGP
UniProt Q96C11: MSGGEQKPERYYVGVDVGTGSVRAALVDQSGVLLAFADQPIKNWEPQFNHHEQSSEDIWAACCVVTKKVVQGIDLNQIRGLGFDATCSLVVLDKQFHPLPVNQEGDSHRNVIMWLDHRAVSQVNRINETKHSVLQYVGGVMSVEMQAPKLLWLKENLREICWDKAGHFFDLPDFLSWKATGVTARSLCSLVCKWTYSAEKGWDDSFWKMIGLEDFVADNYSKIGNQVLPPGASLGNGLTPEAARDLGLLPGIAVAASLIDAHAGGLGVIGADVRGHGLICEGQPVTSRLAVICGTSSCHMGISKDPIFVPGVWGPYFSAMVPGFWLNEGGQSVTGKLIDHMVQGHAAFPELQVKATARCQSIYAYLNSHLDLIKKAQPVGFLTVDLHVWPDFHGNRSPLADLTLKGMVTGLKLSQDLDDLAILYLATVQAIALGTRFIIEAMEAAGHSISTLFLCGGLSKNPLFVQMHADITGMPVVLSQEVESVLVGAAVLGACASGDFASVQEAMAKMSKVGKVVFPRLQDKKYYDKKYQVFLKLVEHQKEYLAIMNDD
UniProt Q96CP2: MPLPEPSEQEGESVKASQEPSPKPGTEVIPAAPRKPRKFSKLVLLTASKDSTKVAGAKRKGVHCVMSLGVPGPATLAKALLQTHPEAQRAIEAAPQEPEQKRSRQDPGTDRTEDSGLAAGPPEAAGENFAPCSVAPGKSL

Some of the results follow.
Each target was assayed with Cc1ccc(-n2nc(C(C)(C)C)cc2NC(=O)Nc2ccc(OCCN3CCOCC3)c3ccccc23)cc1 [doramapimod] (assay: log2 fold change, soluble protein after heating vs DMSO (PISA); higher = thermal stabilisation; K562 lysate, 10 uM; active = over 0.2 and 3.5 SD of the protein, either way, in both replicates (recomputed)).
Outline: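 Log-two fold change in thermal stability relative to solvent controls is reported from duplicates. For each sample, crude K562 extract from dounce-homogenised pellets in PBS pH 7.4 with 1 mM MgCl2, at 1 mg/mL protein, was treated with 10 μM compound for 30 min. Aliquots heated for 3 min across 48°C-58°C were pooled, brought to 0.5% NP-40 at 4°C and cleared at 21,000xg for 90 min. The supernatant was quantified by TMTpro 16plex LC-MS/MS with channel sums equalised.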
For FN3K (UniProt Q9H479), the log2 fold change was inactive: -0.037. FBXL8 (UniProt Q96CD0) was tested, and the log2 fold change was inactive: -0.005. FARSA (UniProt Q9Y285) was tested, and the log2 fold change was inactive: 0. With FKBP2 (UniProt P26885) the log2 fold change was inactive: 0.028. FDX1 (UniProt P10109) was tested, and the log2 fold change was inactive: 0.036. For FGFR1OP2 (UniProt Q9NVK5), the log2 fold change was inactive: 0.04. FKBP7 (UniProt Q9Y680) was tested, and the log2 fold change was inactive: 0.031. FGD6 (UniProt Q6ZV73) was tested, and the log2 fold change was inactive: -0.119. With FECH isoform 2 (UniProt P22830) the log2 fold change was inactive: -0.015. FBXW11 (UniProt Q9UKB1) was tested, and the log2 fold change was inactive: 0.037. With FANCI (UniProt Q9NVI1) the log2 fold change was inactive: -0.003. For FBXO7 (UniProt Q9Y3I1), the log2 fold change was inactive: 0.037. With FHL3 (UniProt Q13643) the log2 fold change was inactive: 0.02. For FDX2 (UniProt Q6P4F2), the log2 fold change was inactive: 0.014. With FNTB (UniProt P49356) the log2 fold change was inactive: -0.053. FBXO5 (UniProt Q9UKT4) was tested, and the log2 fold change was inactive: 0.018. FMNL1 isoform 3 (UniProt O95466) was tested, and the log2 fold change was inactive: 0.048. For FLOT1 (UniProt O75955), the log2 fold change was inactive: 0.003. In the case of FGGY isoform 3 (UniProt Q96C11), the log2 fold change is reported as inactive: 0.046. For FEM1B (UniProt Q9UK73), the log2 fold change was inactive: 0.023. For FNTA (UniProt P49354), the log2 fold change was inactive: -0.004. With FBXO3 (UniProt Q9UK99) the log2 fold change was inactive: -0.038. In the case of FAM8A1 (UniProt Q9UBU6), the log2 fold change is reported as inactive: 0.015. With FDFT1 (UniProt P37268) the log2 fold change was inactive: 0. With FMR1 (UniProt Q06787) the log2 fold change was inactive: -0.058. FNBP4 isoform 2 (UniProt Q8N3X1) was tested, and the log2 fold change was inactive: -0.001. FLII (UniProt Q13045) was tested, and the log2 fold change was inactive: 0.03. With FEN1 (UniProt P39748) the log2 fold change was inactive: 0.043. With FCHO1 (UniProt O14526) the log2 fold change was inactive: -0.039. For FBXL12 (UniProt Q9NXK8), the log2 fold change was inactive: -0.026. For FBXO2 (UniProt Q9UK22), the log2 fold change was inactive: -0.072. For FLYWCH2 (UniProt Q96CP2), the log2 fold change was inactive: -0.036. With FNIP1 isoform 3 (UniProt Q8TF40) the log2 fold change was inactive: 0.027.
